Assay results from PMC9956033.
These are yes or no findings as the source states them, for the method shown. Binding seen in cells or lysates may run through a third protein. Here binding means that the protein was enriched with, or labelled near, the bait; the list need not be complete. Where a sequence is shown, tags or fusion partners need not be part of it. Values belong to the binder of their own block, whether it stands above or below them.

Target: T1, GFP-tagged ThrRS (THS1, YIL078W), yeast cytosolic threonine tRNA synthetase (S. cerevisiae) (UniProt P04801)
T1 sequence: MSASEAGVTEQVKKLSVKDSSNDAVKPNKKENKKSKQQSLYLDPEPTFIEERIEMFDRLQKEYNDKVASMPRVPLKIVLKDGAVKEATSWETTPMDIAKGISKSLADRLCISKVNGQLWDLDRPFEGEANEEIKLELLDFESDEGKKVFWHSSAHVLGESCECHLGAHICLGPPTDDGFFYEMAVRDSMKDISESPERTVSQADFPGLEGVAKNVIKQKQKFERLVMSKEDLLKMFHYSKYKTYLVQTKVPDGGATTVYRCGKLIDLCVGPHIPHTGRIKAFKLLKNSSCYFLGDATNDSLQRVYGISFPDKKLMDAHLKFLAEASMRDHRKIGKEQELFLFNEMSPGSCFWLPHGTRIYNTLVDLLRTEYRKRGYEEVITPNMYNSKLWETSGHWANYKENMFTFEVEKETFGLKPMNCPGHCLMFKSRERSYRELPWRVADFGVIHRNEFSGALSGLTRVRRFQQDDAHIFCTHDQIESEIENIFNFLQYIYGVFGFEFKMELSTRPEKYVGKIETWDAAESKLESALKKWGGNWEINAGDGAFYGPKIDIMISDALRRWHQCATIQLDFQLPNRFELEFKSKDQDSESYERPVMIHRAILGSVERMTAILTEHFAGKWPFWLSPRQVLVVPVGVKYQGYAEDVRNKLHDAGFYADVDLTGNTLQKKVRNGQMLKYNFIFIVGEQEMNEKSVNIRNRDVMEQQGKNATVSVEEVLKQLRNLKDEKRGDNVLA
Assay: affinity purification with mass spectrometry; ThrRS-GFP strain and untagged control cross-linked with 1% formaldehyde for 10 min; lysate on GFP-Trap_MB, 4 °C, 2 h; washes with 0.5 M NaCl, 0.5% NP40; elution with 0.2 M glycine pH 2.5; LC-MS/MS, label-free quantitation against the untagged control, two biological repeats

- binding: binds
B1: ACB1 (protein, UniProt P31787 1-87)
chain: MVSQLFEEKAKAVNELPTKPSTDELLELYALYKQATVGDNDKEKPGIFNMKDRYKWEAWENLKGKSQEDAEKEYIALVDQLIAKYSS

- binding: binds
B2: CYS3, an enzyme involved in cysteine biosynthesis (enzyme, UniProt P31373 1-394)
chain: MTLQESDKFATKAIHAGEHVDVHGSVIEPISLSTTFKQSSPANPIGTYEYSRSQNPNRENLERAVAALENAQYGLAFSSGSATTATILQSLPQGSHAVSIGDVYGGTHRYFTKVANAHGVETSFTNDLLNDLPQLIKENTKLVWIETPTNPTLKVTDIQKVADLIKKHAAGQDVILVVDNTFLSPYISNPLNFGADIVVHSATKYINGHSDVVLGVLATNNKPLYERLQFLQNAIGAIPSPFDAWLTHRGLKTLHLRVRQAALSANKIAEFLAADKENVVAVNYPGLKTHPNYDVVLKQHRDALGGGMISFRIKGGAEAASKFASSTRLFTLAESLGGIESLLEVPAVMTHGGIPKEAREASGVFDDLVRISVGIEDTDDLLEDIKQALKQATN
